Results from patent US5703069A, “Method for inhibiting and controlling viral growth” (Warner-Lambert Company, priority 1996, dated 1997).
The name of at least one read-out is uncertain.

System: HSV-1, Us3::Tn5-lacZ
Experiment: AVUS3: HSV-1 replication inhibition, β-galactosidase assay, in Vero cells
Format: cell-based
Conditions: read-out: IC50 Inhibitory Activity (AVUS3), AVUS3, β-galactosidase virus replication inhibition

COc1ccc2sc3c(c2c1)SCCNC3=O [2,3-Dihydro-9-methoxy[1]benzothieno[2,3-f]-1,4-thiazepin-5(4H)-one]
IC50: 30 nM
